The supplement of paper PMC12823440, “Inhibitors supercharge kinase turnover through native proteolytic circuits” (Nature, 2025)
This is one part of the list. Hit calls seldom repeat between salt and free forms of one compound.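 Kinases were expressed as nanoluciferase fusions in K562 cells and luminescence was read every 4 h between 2 and 18 h as percent of control, DMSO set to 100% and a positive control to 0%. A time point counts as decreased when the signal drops significantly (2 sigma). The hit call is the authors' own, does not follow from the count of time points alone, and its rule is not shown.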

Sequences of proteins named here, by UniProt entry; tags and fusion partners are left off. A change or cut given only in a name is not applied to a line headed by its entry.
UniProt Q8IWU2: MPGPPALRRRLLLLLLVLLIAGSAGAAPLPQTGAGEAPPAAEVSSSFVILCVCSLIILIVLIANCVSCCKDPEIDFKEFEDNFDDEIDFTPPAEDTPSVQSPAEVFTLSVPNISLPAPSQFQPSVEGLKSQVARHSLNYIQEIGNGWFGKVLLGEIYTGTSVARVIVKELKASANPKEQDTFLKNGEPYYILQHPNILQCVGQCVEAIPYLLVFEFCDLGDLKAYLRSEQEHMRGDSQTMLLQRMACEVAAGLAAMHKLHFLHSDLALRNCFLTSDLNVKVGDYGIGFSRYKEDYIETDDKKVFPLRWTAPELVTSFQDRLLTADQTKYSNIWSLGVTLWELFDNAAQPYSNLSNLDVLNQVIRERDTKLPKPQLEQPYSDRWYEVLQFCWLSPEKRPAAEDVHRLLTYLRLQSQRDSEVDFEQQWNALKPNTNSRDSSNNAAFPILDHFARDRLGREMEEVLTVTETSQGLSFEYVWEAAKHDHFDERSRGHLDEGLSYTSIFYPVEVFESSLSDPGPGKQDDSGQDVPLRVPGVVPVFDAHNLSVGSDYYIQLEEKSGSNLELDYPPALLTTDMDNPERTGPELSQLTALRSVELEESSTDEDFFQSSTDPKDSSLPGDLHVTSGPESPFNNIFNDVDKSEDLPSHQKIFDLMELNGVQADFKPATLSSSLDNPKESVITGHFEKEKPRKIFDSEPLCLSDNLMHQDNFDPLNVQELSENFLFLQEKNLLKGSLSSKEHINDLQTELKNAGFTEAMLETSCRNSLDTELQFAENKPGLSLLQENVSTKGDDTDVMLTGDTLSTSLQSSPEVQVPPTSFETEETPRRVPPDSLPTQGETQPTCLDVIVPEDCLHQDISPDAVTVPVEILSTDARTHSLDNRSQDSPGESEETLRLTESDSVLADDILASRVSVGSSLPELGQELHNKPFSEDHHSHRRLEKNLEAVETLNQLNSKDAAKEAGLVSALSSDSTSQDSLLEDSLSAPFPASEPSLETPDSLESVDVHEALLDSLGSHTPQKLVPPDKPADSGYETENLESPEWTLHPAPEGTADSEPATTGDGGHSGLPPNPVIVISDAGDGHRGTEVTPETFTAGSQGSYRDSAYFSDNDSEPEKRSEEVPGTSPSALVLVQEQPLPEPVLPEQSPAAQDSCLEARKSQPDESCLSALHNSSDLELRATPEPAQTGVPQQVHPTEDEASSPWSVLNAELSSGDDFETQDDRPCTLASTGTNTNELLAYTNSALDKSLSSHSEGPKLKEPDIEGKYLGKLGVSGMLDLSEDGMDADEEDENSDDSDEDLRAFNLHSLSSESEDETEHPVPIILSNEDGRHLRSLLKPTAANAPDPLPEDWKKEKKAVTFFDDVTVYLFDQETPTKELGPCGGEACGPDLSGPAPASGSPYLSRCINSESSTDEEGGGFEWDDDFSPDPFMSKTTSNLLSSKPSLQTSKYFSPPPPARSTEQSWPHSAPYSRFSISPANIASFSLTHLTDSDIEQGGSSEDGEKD
UniProt P07948: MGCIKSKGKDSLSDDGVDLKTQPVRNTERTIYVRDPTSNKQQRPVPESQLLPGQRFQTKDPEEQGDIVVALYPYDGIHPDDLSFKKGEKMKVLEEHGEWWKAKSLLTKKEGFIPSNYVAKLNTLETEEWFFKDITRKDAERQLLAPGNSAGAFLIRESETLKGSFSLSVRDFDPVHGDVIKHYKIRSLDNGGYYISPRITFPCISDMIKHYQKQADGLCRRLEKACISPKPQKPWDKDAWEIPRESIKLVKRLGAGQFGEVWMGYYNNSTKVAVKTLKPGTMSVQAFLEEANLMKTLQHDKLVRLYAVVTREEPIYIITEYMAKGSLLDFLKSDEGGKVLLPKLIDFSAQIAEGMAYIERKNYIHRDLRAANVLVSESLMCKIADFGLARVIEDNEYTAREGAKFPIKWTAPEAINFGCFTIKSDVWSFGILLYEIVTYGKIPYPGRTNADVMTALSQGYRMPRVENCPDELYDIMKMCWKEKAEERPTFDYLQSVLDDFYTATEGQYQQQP
UniProt Q12851: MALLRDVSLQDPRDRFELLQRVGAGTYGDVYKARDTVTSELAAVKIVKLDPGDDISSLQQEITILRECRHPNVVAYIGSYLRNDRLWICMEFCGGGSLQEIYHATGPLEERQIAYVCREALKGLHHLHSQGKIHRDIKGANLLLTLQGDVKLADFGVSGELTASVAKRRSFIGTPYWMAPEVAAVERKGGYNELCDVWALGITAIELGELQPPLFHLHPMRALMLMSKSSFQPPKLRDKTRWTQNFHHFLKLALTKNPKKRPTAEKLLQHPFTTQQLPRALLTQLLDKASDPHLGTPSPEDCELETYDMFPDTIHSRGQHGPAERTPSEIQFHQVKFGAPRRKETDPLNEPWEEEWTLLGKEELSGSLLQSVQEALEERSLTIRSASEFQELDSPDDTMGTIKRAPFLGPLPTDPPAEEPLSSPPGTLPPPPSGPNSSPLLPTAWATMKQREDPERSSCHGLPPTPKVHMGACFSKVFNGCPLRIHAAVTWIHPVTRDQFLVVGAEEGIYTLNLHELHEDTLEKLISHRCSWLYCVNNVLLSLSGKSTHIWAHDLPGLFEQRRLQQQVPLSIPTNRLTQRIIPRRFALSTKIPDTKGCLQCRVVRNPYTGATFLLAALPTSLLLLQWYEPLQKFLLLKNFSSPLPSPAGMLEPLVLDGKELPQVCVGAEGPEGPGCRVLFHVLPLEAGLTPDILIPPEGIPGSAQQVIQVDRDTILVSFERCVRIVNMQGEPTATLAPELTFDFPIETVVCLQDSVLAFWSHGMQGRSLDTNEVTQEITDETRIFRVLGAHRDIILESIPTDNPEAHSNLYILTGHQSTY
UniProt P28482, whole entry: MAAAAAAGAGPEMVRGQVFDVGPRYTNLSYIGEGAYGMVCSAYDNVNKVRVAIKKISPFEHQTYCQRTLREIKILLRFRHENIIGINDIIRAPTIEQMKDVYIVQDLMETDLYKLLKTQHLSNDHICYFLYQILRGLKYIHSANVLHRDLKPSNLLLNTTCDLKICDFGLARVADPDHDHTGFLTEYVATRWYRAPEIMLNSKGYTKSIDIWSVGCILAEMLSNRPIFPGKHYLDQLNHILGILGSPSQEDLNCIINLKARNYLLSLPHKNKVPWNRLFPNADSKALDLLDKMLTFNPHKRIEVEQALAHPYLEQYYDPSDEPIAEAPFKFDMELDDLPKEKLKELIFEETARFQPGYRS
UniProt P31152, whole entry: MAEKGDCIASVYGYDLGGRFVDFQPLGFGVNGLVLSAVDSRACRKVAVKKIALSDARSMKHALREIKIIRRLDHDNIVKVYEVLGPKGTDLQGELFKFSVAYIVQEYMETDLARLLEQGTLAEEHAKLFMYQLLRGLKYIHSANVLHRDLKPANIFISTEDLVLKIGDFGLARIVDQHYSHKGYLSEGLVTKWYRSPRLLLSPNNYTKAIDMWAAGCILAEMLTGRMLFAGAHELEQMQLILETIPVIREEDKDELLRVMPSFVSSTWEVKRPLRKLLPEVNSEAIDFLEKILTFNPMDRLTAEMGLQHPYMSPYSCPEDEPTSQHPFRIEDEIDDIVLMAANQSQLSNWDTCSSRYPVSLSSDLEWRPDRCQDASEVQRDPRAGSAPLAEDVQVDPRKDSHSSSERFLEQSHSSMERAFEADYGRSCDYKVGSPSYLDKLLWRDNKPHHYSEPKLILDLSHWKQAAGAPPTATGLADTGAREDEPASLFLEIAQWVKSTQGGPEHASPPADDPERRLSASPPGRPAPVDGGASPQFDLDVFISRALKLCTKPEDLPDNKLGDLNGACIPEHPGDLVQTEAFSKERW
UniProt P49137, whole entry, looked up: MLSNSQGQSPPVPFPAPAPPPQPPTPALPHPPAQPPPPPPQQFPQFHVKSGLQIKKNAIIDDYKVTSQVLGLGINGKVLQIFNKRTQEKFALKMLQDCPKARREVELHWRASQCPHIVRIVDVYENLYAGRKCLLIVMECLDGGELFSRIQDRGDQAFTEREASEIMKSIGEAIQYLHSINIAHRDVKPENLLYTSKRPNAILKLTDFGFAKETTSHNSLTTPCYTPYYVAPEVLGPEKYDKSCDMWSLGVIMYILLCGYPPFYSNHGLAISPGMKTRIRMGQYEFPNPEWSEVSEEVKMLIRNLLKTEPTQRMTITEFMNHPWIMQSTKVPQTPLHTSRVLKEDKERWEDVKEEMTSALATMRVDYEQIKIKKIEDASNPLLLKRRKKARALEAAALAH
UniProt Q9BUB5: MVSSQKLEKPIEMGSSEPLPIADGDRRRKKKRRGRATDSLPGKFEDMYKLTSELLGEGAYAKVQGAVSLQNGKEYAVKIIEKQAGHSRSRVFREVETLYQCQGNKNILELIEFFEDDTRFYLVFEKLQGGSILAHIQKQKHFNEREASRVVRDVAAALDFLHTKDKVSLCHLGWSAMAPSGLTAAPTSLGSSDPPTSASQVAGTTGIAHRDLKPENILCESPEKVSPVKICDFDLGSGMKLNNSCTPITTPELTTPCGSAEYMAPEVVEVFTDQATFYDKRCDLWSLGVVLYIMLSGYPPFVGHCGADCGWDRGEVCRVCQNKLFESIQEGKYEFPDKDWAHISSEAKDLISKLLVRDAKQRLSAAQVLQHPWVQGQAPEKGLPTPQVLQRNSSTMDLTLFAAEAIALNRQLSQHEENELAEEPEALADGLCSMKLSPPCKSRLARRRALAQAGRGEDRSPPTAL
UniProt Q16620, whole entry, looked up: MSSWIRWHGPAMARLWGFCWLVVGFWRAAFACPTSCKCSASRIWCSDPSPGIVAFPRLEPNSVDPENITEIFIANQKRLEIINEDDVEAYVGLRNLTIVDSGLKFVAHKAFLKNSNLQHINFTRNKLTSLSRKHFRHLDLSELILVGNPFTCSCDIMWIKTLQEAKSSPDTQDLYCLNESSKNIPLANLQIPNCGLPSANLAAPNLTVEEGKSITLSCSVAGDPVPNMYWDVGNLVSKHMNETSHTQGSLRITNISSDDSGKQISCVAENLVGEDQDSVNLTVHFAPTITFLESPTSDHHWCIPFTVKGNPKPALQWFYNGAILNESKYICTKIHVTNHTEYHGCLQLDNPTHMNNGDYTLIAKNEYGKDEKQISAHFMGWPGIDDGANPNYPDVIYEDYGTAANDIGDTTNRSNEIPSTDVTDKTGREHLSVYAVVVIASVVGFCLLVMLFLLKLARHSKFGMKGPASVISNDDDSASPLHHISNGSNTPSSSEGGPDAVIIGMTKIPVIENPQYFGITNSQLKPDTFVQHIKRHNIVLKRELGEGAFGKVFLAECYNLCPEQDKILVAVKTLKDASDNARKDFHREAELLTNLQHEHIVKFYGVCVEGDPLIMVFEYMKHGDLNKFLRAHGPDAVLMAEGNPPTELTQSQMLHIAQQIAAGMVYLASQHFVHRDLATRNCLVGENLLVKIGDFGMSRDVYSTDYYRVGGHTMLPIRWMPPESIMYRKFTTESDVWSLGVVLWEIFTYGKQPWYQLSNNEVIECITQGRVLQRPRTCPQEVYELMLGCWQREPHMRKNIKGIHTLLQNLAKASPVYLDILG

How the values were obtained:
Experiment in all cases: number of time points (of 5) at which kinase-Nluc abundance scored as decreased, DMSO-normalised (count); higher = more persistent destabilization
Conditions in all cases: K562; 2-18 h
LMTK2 = LMTK2 (UniProt Q8IWU2)
LYN = LYN (UniProt P07948)
MAP2K1 = MAP2K1 (UniProt Q02750)
MAP2K2 = MAP2K2 (UniProt P36507)
MAP4K2 = MAP4K2 (UniProt Q12851)
MAPK1 = MAPK1 (UniProt P28482)
MAPK4 = MAPK4 (UniProt P31152)
MAPKAPK2 = MAPKAPK2 (UniProt P49137)
MKNK1 = MKNK1 (UniProt Q9BUB5)
NTRK2 = NTRK2 (UniProt Q16620)

Compound	number of time points (LMTK2)	number of time points (LYN)	number of time points (MAP2K1)	number of time points (MAP2K2)	number of time points (MAP4K2)	number of time points (MAPK1)	number of time points (MAPK4)	number of time points (MAPKAPK2)	number of time points (MKNK1)	number of time points (NTRK2)
O=c1cc(-c2ccc(O)cc2)oc2cc(O)c(O)c(O)c12 [Scutellarein] (10 µM)	0	0	0	0	0	0	0	0	0	0
O=C(Nc1nccs1)C(c1cc(F)ccc1O)N1Cc2ccccc2C1=O (stereo not given) (10 µM)	0	0	0	0	0	0	0	0	0	0
COc1cc(-c2cnc(N)c(-c3ccc(NC(=O)c4cn(CC5CCOCC5)cc(-c5ccc(C)cn5)c4=O)cc3F)c2)ccc1OC[C@H]1COCCO1 [DS-1205b (free base)] (10 µM)	0	0	0	0	0	0	0	0	0	0
O=c1cc(-c2ccc(O)cc2)oc2cc(O)c([C@@H]3O[C@H](CO)[C@@H](O)[C@H](O)[C@H]3O)c(O)c12 [Isovitexin] (10 µM)	0	0	0	0	0	0	0	0	0	0
COc1ccc(C2CC(c3ccc(Cl)cc3)=NN2c2nc(-c3ccncc3)cs2)cc1 (stereo not given) [mTOR inhibitor-8] (10 µM)	0	0	0	0	0	0	0	0	0	0
CNC(=O)c1ccc(-c2cnc3ncc(Cc4ccc5ncccc5c4)n3n2)cc1F [Capmatinib] (10 µM)	0	0	0	0	0	0	0	0	0	0
COc1cccc2cc(-c3nc([C@H]4CC[C@H](C(=O)O)CC4)n4ncnc(N)c34)[nH]c12 (2.5 µM)	0	0	0	0	0	0	0	0	0	3
O=c1[nH]nc(Sc2ncc([N+](=O)[O-])s2)n1-c1ccc2c(c1)OCCO2 (2.5 µM)	0	0	0	0	0	0	0	0	0	0
CCC(=O)N1CC[C@H](Nc2ncnc3c2CN(c2cnc(OC)c(C(F)(F)F)c2)CC3)C1 [Leniolisib] (10 µM)	0	0	0	0	0	0	0	0	0	0
O=c1cc(N2CCOCC2)oc2c1ccc1ccccc12 (2 µM)	0	0	0	0	0	0	0	0	0	0
Cc1cc(Nc2ncc(Cl)c(Nc3ccccc3S(=O)(=O)C(C)C)n2)c(OC(C)C)cc1C1CCN(CC(=O)NCCNc2cccc3c2C(=O)N(C2CCC(=O)NC2=O)C3=O)CC1 (stereo not given) (10 µM)	0	0	0	0	0	0	0	0	0	0
CN(c1ccc(C(F)(F)F)cc1)S(=O)(=O)c1ccc(C(=O)Nc2nc(-c3ccccn3)cs2)cc1 (2.5 µM)	0	0	0	0	0	0	0	0	0	0
C[C@@H]1CN(Cc2cn[nH]c2-c2ccc(C#N)cc2)CCN1c1ccc(C(F)(F)F)cn1 (2.5 µM)	0	0	0	0	0	0	0	0	0	0
CCCC[C@H](CO)Nc1nc(NC)ncc1OC [Interferon receptor inducer-1] (10 µM)	0	0	0	0	0	0	0	0	0	0
COc1cc2nccc(Oc3ccc(NC(=O)Nc4ccc(F)cc4F)c(F)c3)c2cc1OC (10 µM)	0	0	0	0	0	0	0	0	0	0
C=CCN(/C=C1/C(=O)O[C@H](COC)[C@@]2(C)C1=C(O)C(=O)C1=C2[C@H](OC(C)=O)C[C@]2(C)C(=O)CC[C@@H]12)CC=C [Sonolisib] (2.5 µM)	0	0	0	0	0	0	0	0	0	0
CC(C)=C/C=C1\O[C@@H]2CC(C)=CC(=O)[C@@H]2[C@]1(C)O [Bisabolangelone] (10 µM)	0	0	0	0	0	0	0	0	0	0

Compound	number of time points (LMTK2)	number of time points (LYN)	number of time points (MAP2K1)	number of time points (MAP2K2)	number of time points (MAP4K2)	number of time points (MAPK1)	number of time points (MAPK4)	number of time points (MAPKAPK2)	number of time points (MKNK1)	number of time points (NTRK2)
CC(=O)Nc1nc(C)c(-c2cc3c(c(S(C)(=O)=O)c2)C(=O)N([C@@H](C)C2CC2)C3)s1 (2.5 µM)	0	0	0	0	0	0	0	0	0	0
COc1cccc(Nc2ncnn3ccc(CN4CC[C@@H](N)[C@H](O)C4)c23)c1 (2.5 µM)	0	0	0	0	0	0	0	0	1	0
CC(C)n1nc(C#Cc2ccccc2)c2c(N)ncnc21 (10 µM)	0	0	0	0	0	0	0	0	0	0
COc1ccc(F)cc1C(=O)NCc1ccc(-c2nn([C@@H](C)C(F)(F)F)c(N)c2C(N)=O)cc1 [Pirtobrutinib] (10 µM)	0	0	0	0	0	0	0	0	0	0
Cc1ccc(-n2c(-c3ccc(O)cc3O)n[nH]c2=O)cc1 (10 µM)	4	2	0	0	0	0	2	0	0	4
CN1CCC(c2ccccc2CC(C)(C)Nc2nc(N3CCOCC3)nc(-n3c(S(C)(=O)=O)nc4ccccc43)n2)CC1 (10 µM)	0	0	0	0	0	0	0	0	0	0
CCS(=O)(=O)c1ccc(Oc2cc(O[C@@H](C)CO)cc(C(=O)Nc3ccn(C)n3)c2)cn1 (10 µM)	0	0	0	0	0	0	0	0	0	0
O=C1c2cccc(O)c2C(=O)c2c(O)cccc21 [Danthron] (10 µM)	0	0	0	0	0	0	0	0	0	0
O=C(Nc1cc(Cl)cc(Cl)c1)Nc1cc(Cl)cc(Cl)c1 (10 µM)	0	0	0	0	0	0	0	0	0	0
O=c1sn(-c2cccc3ccccc23)c(=O)n1Cc1ccccc1 [Tideglusib] (10 µM)	0	0	0	0	0	0	0	0	0	0
COc1ccc2c(c1)C[C@H](C(=O)Nc1ccc(-c3cn[nH]c3)cc1OCCN(C)C)CO2 [Chroman 1] (10 µM)	0	0	0	0	0	0	0	0	0	0
C[C@@H]1CC[C@]2(C(=O)O)CC[C@]3(C)C(=CC[C@@H]4[C@@]5(C)CC[C@H](O)[C@@](C)(CO)[C@@H]5CC[C@]43C)[C@@H]2[C@]1(C)O [Rotundic acid] (10 µM)	0	0	0	0	0	0	0	0	0	0
O=C(NCc1cccc(O)c1)c1cc2cc(F)ccc2[nH]1 (10 µM)	0	0	0	0	0	0	0	0	0	0
COc1ccc(-c2cnc3c(-c4cccc5ncccc45)cnn3c2)cc1 (10 µM)	0	0	0	0	0	0	0	0	0	0
O=c1ccc2cc(O)c(O)cc2o1 [Esculetin] (10 µM)	0	0	0	0	0	0	0	0	0	0
N#C/C(=C\c1ccc[nH]1)c1ccc(Cl)c(Cl)c1 (2.5 µM)	0	0	0	0	0	0	0	0	0	0
Cn1sc(=O)n(Cc2ccccc2)c1=O (10 µM)	0	0	0	0	0	0	0	0	0	0

Some of the entries so far, as a markdown table.

| Compound | number of time points (LMTK2) | number of time points (LYN) | number of time points (MAP2K1) | number of time points (MAP2K2) | number of time points (MAP4K2) | number of time points (MAPK1) | number of time points (MAPK4) | number of time points (MAPKAPK2) | number of time points (MKNK1) | number of time points (NTRK2) |
| --- | --- | --- | --- | --- | --- | --- | --- | --- | --- | --- |
| CC(=O)Nc1nc(C)c(-c2cc3c(c(S(C)(=O)=O)c2)C(=O)N([C@@H](C)C2CC2)C3)s1 (2.5 µM) | 0 | 0 | 0 | 0 | 0 | 0 | 0 | 0 | 0 | 0 |
| COc1cccc(Nc2ncnn3ccc(CN4CC[C@@H](N)[C@H](O)C4)c23)c1 (2.5 µM) | 0 | 0 | 0 | 0 | 0 | 0 | 0 | 0 | 1 | 0 |
